In the supplement of paper PMC10849652:
Some of the results follow.

Sequences of proteins named here, by UniProt entry; tags and fusion partners are left off. A change or cut given only in a name is not applied to a line headed by its entry.
UniProt Q8IWB7: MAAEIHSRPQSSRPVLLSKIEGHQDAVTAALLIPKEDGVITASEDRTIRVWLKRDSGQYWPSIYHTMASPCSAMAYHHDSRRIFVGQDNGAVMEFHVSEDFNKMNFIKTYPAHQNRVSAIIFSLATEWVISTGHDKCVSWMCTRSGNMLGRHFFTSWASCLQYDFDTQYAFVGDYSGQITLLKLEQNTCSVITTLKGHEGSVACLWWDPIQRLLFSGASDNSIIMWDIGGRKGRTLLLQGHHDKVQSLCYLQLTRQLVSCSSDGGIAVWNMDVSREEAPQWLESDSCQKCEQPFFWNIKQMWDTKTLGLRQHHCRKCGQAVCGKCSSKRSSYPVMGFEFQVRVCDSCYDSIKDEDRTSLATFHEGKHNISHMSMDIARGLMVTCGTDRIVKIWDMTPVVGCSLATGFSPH
UniProt Q8TBZ3: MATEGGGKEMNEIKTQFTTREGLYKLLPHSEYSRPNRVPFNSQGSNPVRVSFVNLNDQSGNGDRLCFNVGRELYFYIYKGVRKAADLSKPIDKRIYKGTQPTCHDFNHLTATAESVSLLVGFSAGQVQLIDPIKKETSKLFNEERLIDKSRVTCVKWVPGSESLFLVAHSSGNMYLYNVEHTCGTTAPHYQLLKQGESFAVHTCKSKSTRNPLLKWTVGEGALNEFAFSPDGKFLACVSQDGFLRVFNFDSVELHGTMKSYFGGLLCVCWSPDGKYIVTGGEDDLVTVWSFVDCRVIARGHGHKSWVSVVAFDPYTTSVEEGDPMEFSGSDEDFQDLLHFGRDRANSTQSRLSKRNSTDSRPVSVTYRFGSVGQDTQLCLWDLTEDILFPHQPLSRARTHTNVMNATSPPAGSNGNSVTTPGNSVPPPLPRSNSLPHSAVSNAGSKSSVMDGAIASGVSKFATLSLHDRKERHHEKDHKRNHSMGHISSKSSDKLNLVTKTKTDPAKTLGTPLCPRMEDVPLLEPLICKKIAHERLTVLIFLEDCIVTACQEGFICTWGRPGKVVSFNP
UniProt P45880: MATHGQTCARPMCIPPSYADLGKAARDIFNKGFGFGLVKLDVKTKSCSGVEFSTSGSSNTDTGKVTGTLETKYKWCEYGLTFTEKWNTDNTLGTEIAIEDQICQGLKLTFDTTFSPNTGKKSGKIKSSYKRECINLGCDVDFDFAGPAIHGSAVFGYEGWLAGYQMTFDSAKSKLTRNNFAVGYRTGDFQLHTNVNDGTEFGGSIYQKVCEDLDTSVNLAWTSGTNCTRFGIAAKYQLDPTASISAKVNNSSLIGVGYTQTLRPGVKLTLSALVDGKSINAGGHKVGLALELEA
UniProt Q86Y07: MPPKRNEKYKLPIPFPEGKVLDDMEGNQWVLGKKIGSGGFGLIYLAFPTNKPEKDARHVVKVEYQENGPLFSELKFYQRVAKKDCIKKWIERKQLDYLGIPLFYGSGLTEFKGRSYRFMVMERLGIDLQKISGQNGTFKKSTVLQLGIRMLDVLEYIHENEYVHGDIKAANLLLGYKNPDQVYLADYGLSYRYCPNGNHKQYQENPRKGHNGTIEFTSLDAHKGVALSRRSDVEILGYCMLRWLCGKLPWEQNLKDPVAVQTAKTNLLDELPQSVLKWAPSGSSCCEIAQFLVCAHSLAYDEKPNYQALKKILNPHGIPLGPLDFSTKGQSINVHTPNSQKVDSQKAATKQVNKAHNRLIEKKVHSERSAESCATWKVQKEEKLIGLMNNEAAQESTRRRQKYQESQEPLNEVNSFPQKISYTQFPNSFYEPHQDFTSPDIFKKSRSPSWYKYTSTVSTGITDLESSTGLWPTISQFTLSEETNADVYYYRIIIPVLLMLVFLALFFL
UniProt Q9NW82: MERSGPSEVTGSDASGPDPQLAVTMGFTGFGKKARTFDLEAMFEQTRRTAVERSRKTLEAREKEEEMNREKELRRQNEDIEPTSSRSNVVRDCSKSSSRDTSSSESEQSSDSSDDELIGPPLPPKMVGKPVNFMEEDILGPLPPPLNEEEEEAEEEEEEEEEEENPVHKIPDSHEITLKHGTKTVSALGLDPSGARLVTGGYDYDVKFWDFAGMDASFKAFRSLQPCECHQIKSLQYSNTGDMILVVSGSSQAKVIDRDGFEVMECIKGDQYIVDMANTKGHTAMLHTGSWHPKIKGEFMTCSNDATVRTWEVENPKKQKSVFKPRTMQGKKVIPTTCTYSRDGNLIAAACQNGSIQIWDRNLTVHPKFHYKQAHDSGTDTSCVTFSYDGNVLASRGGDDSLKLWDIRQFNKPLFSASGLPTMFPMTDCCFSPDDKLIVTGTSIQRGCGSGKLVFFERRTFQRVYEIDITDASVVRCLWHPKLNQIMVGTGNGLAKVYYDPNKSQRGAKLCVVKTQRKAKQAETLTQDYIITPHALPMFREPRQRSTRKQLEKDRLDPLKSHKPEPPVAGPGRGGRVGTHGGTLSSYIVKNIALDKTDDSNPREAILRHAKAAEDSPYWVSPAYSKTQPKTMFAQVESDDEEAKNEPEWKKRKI
UniProt Q6UXN9, whole entry, looked up: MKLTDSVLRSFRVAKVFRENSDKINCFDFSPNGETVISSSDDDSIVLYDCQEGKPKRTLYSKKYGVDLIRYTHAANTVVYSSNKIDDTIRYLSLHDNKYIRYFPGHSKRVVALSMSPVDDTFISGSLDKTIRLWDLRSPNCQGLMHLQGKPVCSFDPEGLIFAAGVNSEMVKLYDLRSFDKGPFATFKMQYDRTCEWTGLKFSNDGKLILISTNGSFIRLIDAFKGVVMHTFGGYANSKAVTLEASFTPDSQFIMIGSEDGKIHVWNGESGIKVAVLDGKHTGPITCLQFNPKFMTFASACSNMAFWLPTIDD
UniProt Q9Y6W5, whole entry, looked up: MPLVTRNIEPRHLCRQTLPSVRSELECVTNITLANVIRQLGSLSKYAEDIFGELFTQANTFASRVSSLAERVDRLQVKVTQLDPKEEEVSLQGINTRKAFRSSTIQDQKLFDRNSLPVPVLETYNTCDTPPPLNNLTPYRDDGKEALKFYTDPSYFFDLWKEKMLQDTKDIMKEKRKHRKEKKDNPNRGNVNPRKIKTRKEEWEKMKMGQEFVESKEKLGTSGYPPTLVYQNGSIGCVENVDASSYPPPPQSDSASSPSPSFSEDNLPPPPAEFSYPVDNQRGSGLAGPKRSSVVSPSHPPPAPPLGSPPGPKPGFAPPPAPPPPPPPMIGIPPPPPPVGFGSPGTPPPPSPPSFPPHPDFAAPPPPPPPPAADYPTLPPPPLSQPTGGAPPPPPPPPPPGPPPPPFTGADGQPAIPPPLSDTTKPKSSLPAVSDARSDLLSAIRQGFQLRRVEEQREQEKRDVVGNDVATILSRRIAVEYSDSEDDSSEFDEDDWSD
UniProt Q6P4I2: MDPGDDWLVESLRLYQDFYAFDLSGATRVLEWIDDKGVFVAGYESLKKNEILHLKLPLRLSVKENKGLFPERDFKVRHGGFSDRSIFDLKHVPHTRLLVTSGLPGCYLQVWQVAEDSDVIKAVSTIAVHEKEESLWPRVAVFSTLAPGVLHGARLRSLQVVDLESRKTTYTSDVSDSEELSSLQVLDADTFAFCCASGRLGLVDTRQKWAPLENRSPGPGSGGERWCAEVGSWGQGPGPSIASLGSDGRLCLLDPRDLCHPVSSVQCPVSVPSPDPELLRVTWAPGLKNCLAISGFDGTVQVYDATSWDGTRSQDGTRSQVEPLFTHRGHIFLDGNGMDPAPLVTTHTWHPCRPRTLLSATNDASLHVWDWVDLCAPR
UniProt Q8N9V3: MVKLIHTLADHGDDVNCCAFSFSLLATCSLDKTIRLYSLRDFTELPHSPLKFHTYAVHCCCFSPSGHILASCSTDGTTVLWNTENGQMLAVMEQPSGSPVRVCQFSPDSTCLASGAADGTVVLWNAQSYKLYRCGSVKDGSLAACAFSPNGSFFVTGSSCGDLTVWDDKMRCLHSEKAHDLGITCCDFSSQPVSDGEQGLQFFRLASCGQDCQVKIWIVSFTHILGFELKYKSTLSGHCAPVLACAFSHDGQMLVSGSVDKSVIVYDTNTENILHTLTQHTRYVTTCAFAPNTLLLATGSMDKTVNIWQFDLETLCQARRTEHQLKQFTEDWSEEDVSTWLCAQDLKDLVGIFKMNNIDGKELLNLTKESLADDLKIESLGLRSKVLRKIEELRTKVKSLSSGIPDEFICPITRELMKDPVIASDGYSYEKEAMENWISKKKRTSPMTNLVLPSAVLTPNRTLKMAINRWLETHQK
UniProt Q8TAF3: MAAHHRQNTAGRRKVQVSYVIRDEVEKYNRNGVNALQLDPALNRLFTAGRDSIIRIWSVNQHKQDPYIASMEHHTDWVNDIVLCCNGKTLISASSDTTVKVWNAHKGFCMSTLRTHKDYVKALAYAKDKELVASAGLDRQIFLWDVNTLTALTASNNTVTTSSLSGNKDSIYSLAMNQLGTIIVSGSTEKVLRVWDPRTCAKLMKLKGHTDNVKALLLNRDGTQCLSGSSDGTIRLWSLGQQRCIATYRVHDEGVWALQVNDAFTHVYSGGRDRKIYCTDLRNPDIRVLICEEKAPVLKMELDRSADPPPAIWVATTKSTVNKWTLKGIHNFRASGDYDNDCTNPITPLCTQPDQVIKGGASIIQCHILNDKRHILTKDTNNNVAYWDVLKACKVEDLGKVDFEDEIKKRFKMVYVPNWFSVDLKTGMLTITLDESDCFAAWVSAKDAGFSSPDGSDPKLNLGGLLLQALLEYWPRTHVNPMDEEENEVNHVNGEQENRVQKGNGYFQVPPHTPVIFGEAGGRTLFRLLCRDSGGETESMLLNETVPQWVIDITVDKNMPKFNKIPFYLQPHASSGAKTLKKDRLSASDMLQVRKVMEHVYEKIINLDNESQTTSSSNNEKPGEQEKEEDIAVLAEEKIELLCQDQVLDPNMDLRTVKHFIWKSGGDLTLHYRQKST
UniProt Q96FK6: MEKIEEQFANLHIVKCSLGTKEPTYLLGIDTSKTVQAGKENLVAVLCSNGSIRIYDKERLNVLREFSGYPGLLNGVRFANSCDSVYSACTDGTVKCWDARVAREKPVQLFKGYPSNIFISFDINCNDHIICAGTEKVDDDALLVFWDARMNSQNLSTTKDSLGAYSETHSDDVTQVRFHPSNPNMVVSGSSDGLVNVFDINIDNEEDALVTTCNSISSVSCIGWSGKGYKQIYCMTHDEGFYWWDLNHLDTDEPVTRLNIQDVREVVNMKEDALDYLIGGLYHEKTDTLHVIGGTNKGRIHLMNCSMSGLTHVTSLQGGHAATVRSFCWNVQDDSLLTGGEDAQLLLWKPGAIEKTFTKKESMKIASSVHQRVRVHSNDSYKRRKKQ
UniProt Q9UN37: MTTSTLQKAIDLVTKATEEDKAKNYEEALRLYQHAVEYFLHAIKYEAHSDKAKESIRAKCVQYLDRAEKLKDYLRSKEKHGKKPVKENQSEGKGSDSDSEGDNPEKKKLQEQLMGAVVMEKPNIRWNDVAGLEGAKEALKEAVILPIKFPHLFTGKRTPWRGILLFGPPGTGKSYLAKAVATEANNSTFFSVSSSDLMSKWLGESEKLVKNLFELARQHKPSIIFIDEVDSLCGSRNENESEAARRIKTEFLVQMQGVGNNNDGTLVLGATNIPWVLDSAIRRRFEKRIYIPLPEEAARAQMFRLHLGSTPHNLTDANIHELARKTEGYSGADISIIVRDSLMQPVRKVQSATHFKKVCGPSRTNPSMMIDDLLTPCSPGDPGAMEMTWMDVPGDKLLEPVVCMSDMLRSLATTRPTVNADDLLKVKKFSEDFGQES

Key:
Assay in all cases: log2 fold change, soluble protein after heating vs DMSO (PISA); higher = thermal stabilisation; K562 cells, 10 uM, 30 min; active = over 0.2 and 3.5 SD of the protein, either way, in both replicates (recomputed)
saracatinib = compound: CN1CCN(CCOc2cc(OC3CCOCC3)c3c(Nc4c(Cl)ccc5c4OCO5)ncnc3c2)CC1 [saracatinib]
Method in brief: (§1)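 For each measurement, 10 μM compound was applied for 30 min to K562 cells at 2×10^6 cells/mL. Aliquots were heated for 3 min across 48°C-58°C, pooled, and extracted in PBS with 0.5% NP-40 at 4°C; the supernatant after 21,000xg for 90 min was soluble protein. This was quantified by TMTpro 16plex LC-MS/MS with channel sums equalised, and thermal stability was reported relative to control samples from duplicates, on a log2 fold-change scale.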

sotrastaurin = compound: CN1CCN(c2nc(C3=C(c4c[nH]c5ccccc45)C(=O)NC3=O)c3ccccc3n2)CC1 [sotrastaurin]
Method in brief: as §1

alvocidib = compound: CN1CC[C@H](c2c(O)cc(O)c3c(=O)cc(-c4ccccc4Cl)oc23)[C@H](O)C1 [alvocidib]
Method in brief: as §1

Tubastatin A = compound: CN1CCc2c(c3ccccc3n2Cc2ccc(C(=O)NO)cc2)C1 [Tubastatin A]
Method in brief: as §1

[1] = compound: CNC(=O)C1=CC=CC=C1NC2=NC(=NC=C2Cl)NC3=C(C=C(C=C3)N4CCOCC4)OC
Method in brief: as §1

defactinib = compound: CNC(=O)c1ccc(Nc2ncc(C(F)(F)F)c(NCc3nccnc3N(C)S(C)(=O)=O)n2)cc1 [defactinib]
Method in brief: as §1

rucaparib = compound: CNCc1ccc(-c2[nH]c3cc(F)cc4c3c2CCNC4=O)cc1 [rucaparib]
Method in brief: as §1

[2] = compound: CNc1nc(-c2ccc3c(N)n[nH]c3c2)cc(N2C[C@@H](C(=O)NC3CCCCC3)CC[C@H]2C)n1
Method in brief: as §1

encorafenib = compound: COC(=O)N[C@@H](C)CNc1nccc(-c2cn(C(C)C)nc2-c2cc(Cl)cc(NS(C)(=O)=O)c2F)n1 [encorafenib]
Method in brief: as §1

[3] = compound: COC(=O)[C@H](CCSC)NC(=O)C1=C(C=C(C=C1)NC[C@H](CS)N)C2=CC=CC=C2
Method in brief: as §1

[4] = compound: COC1=CC=C(C=C1)CN2C=CC3=C2C=C(C=C3)C(=O)NO
Method in brief: as §1

filanesib = compound: CON(C)C(=O)N1N=C(c2cc(F)ccc2F)S[C@@]1(CCCN)c1ccccc1 [filanesib]
Method in brief: as §1

zotarolimus = compound: CO[C@H]1C[C@@H]2CC[C@@H](C)[C@@](O)(O2)C(=O)C(=O)N2CCCC[C@H]2C(=O)O[C@H]([C@H](C)C[C@@H]2CC[C@H](n3cnnn3)[C@H](OC)C2)CC(=O)[C@H](C)/C=C(\C)[C@@H](O)[C@@H](OC)C(=O)[C@H](C)C[C@H](C)/C=C/C=C/C=C/1C [zotarolimus]
Method in brief: as §1

idasanutlin = compound: COc1cc(C(=O)O)ccc1NC(=O)[C@@H]1N[C@@H](CC(C)(C)C)[C@](C#N)(c2ccc(Cl)cc2F)[C@H]1c1cccc(Cl)c1F [idasanutlin]
Method in brief: as §1

alisertib = compound: COc1cc(Nc2ncc3c(n2)-c2ccc(Cl)cc2C(c2c(F)cccc2OC)=NC3)ccc1C(=O)O [alisertib]
Method in brief: as §1

[5] = compound: COc1cc2nc(-c3cc(F)ccc3O)nc(N[C@@H]3CNC[C@H]3C(C)(C)O)c2cc1OC
Method in brief: as §1

gefitinib = compound: COc1cc2ncnc(Nc3ccc(F)c(Cl)c3)c2cc1OCCCN1CCOCC1 [gefitinib]
Method in brief: as §1

[6] = compound: COc1cccc2cc(-c3nc([C@H]4CC[C@H](C(=O)O)CC4)n4ncnc(N)c34)[nH]c12
Method in brief: as §1

lapatinib = compound: CS(=O)(=O)CCNCc1ccc(-c2ccc3ncnc(Nc4ccc(OCc5cccc(F)c5)c(Cl)c4)c3c2)o1 [lapatinib]
Method in brief: as §1

pictilisib = compound: CS(=O)(=O)N1CCN(Cc2cc3nc(-c4cccc5[nH]ncc45)nc(N4CCOCC4)c3s2)CC1 [pictilisib]
Method in brief: as §1

Target	log2 fold change (saracatinib)	log2 fold change (sotrastaurin)	log2 fold change (alvocidib)	log2 fold change (Tubastatin A)	log2 fold change [1]	log2 fold change (defactinib)	log2 fold change (rucaparib)	log2 fold change [2]	log2 fold change (encorafenib)	log2 fold change [3]	log2 fold change [4]	log2 fold change (filanesib)	log2 fold change (zotarolimus)	log2 fold change (idasanutlin)	log2 fold change (alisertib)	log2 fold change [5]	log2 fold change (gefitinib)	log2 fold change [6]	log2 fold change (lapatinib)	log2 fold change (pictilisib)
WDFY1 (UniProt Q8IWB7)	inactive: 0.151	inactive: 0.004	inactive: 0.049	inactive: -0.073	inactive: -0.004	inactive: -0.019	inactive: -0.003	inactive: -0.044	inactive: -0.036	inactive: 0.074	inactive: -0.053	inactive: -0.022	inactive: -0.02	inactive: 0.022	inactive: -0.022	inactive: 0.063	inactive: 0.033	inactive: 0.07	inactive: -0.038	inactive: -0.01
VPS29 isoform 2 (UniProt Q9UBQ0)	inactive: 0.052	inactive: 0.025	inactive: 0.075	inactive: -0.039	inactive: -0.02	inactive: 0.022	inactive: -0.06	inactive: -0.021	inactive: -0.003	inactive: 0.044	inactive: 0	inactive: -0.057	inactive: -0.007	inactive: -0.01	inactive: -0.047	inactive: -0.02	inactive: -0.008	inactive: 0.057	inactive: -0.008	inactive: -0.081
WDR20 isoform 7 (UniProt Q8TBZ3)	inactive: -0.011	inactive: -0.071	inactive: 0	inactive: -0.004	inactive: 0.028	inactive: 0.041	inactive: 0.096	inactive: -0.023	inactive: 0.022	inactive: 0.027	inactive: -0.051	inactive: 0.074	inactive: -0.004	inactive: 0.048	inactive: 0.123	inactive: -0.065	inactive: -0.008	inactive: -0.154	inactive: 0.011	inactive: 0.067
VPS26C (UniProt O14972)	inactive: 0.076	inactive: -0.128	inactive: -0.08	inactive: 0.016	inactive: 0.024	inactive: -0.108	inactive: 0.007	inactive: 0.015	inactive: 0.041	inactive: 0.116	inactive: 0.057	inactive: -0.124	inactive: 0.129	inactive: -0.081	inactive: 0.078	inactive: 0.079	inactive: -0.086	inactive: -0.052	inactive: 0.006	inactive: -0.016
WDR26, A0A499FIZ0	inactive: 0.001	inactive: -0.045	inactive: 0.027	inactive: -0.012	inactive: 0.063	inactive: -0.018	inactive: -0.011	inactive: -0.038	inactive: 0.025	inactive: 0.013	inactive: -0.062	inactive: -0.036	inactive: -0.016	inactive: 0.019	inactive: -0.013	inactive: -0.039	inactive: 0.028	inactive: 0.01	inactive: 0.092	inactive: 0.01
VDAC2 (UniProt P45880)	inactive: 0.046	inactive: 0.031	inactive: 0.012	inactive: -0.053	inactive: -0.012	inactive: -0.012	inactive: -0.013	inactive: -0.022	inactive: -0.015	inactive: 0.001	inactive: -0.013	inactive: -0.005	inactive: -0.005	inactive: -0.022	inactive: -0.032	inactive: -0.015	inactive: -0.008	inactive: 0.044	inactive: -0.009	inactive: -0.01
VRK2 (UniProt Q86Y07)	inactive: -0.036	inactive: 0.075	active: 0.4	inactive: 0.014	inactive: -0.102	inactive: 0.106	inactive: -0.039	inactive: -0.017	inactive: -0.001	inactive: -0.092	inactive: -0.009	inactive: 0.075	inactive: 0	inactive: -0.066	inactive: 0.042	inactive: 0.003	inactive: 0.018	inactive: -0.027	inactive: -0.003	inactive: -0.06
WDR70 (UniProt Q9NW82)	inactive: 0.001	inactive: -0.007	inactive: -0.038	inactive: 0.008	inactive: 0.03	inactive: -0.004	inactive: -0.024	inactive: -0.016	inactive: -0.019	inactive: 0	inactive: -0.014	inactive: -0.08	inactive: 0.024	inactive: -0.024	inactive: 0.007	inactive: 0.05	inactive: 0.014	inactive: 0.024	inactive: -0.011	inactive: 0.049
WDR82 (UniProt Q6UXN9)	inactive: 0.004	inactive: 0.03	inactive: 0.118	inactive: -0.004	inactive: 0.002	inactive: 0.108	inactive: 0.185	inactive: 0.018	inactive: 0.03	inactive: -0.007	inactive: -0.067	inactive: 0.144	inactive: 0.015	inactive: 0.047	inactive: -0.051	inactive: 0.002	inactive: -0.008	inactive: -0.018	inactive: 0.037	inactive: 0.015
WASF2 (UniProt Q9Y6W5)	inactive: 0.055	inactive: -0.033	inactive: -0.024	inactive: 0.024	inactive: -0.017	inactive: 0	inactive: -0.095	inactive: -0.06	inactive: 0.001	inactive: 0.034	inactive: 0.005	inactive: 0.05	inactive: -0.045	inactive: 0.026	inactive: -0.061	inactive: -0.023	inactive: -0.013	inactive: -0.013	inactive: 0.004	inactive: -0.04
WDR73 (UniProt Q6P4I2)	inactive: 0.01	inactive: 0.029	inactive: -0.021	inactive: -0.02	inactive: -0.023	inactive: -0.042	inactive: -0.037	inactive: -0.019	inactive: -0.063	inactive: 0.006	inactive: -0.011	inactive: 0.033	inactive: 0.002	inactive: -0.03	inactive: -0.001	inactive: 0.051	inactive: 0.024	inactive: 0.066	inactive: 0.023	inactive: 0.029
WDSUB1 (UniProt Q8N9V3)	inactive: 0.041	inactive: 0.029	inactive: -0.037	inactive: 0.049	inactive: -0.073	inactive: -0.061	inactive: -0.044	inactive: -0.036	inactive: -0.012	inactive: 0.037	inactive: 0.031	inactive: 0.027	inactive: 0.02	inactive: -0.001	inactive: 0.022	inactive: -0.025	inactive: 0.008	inactive: 0.053	inactive: -0.03	inactive: 0.081
WDR48 (UniProt Q8TAF3)	inactive: 0.021	inactive: 0.027	inactive: 0.008	inactive: -0.019	inactive: -0.022	inactive: -0.038	inactive: 0.02	inactive: -0.061	inactive: -0.025	inactive: 0.026	inactive: -0.025	inactive: -0.029	inactive: -0.027	inactive: -0.005	inactive: -0.044	inactive: 0.038	inactive: 0.023	inactive: 0.048	inactive: -0.033	inactive: 0.033
WDR89 (UniProt Q96FK6)	inactive: 0.081	inactive: 0.013	inactive: -0.036	inactive: -0.021	inactive: -0.048	inactive: -0.006	inactive: 0.038	inactive: -0.043	inactive: -0.036	inactive: 0.095	inactive: -0.027	inactive: -0.019	inactive: -0.026	inactive: 0.063	inactive: -0.086	inactive: -0.023	inactive: 0.006	inactive: 0.021	inactive: 0.006	inactive: -0.016
VPS4A (UniProt Q9UN37)	inactive: 0.019	inactive: -0.004	inactive: -0.069	inactive: 0.002	inactive: -0.006	inactive: -0.021	inactive: 0.008	inactive: -0.006	inactive: 0.049	inactive: -0.024	inactive: 0.063	inactive: -0.049	inactive: 0.028	inactive: -0.038	inactive: -0.02	inactive: 0.032	inactive: -0.02	inactive: 0.013	inactive: -0.019	inactive: 0.024
VCX3B (UniProt Q9H321)	inactive: -0.022	inactive: 0.087	inactive: 0	inactive: -0.047	inactive: -0.057	inactive: -0.025	inactive: 0.021	inactive: -0.076	inactive: -0.043	inactive: 0.032	–	inactive: -0.011	inactive: -0.074	inactive: 0.009	inactive: -0.013	inactive: 0.003	inactive: 0.007	inactive: -0.041	inactive: -0.11	inactive: 0.039
